Drawing on paper PMC3460625, this text covers binding for 1 substance.

Amino acid sequences for entries named in this document (tags omitted).
UniProt P03519: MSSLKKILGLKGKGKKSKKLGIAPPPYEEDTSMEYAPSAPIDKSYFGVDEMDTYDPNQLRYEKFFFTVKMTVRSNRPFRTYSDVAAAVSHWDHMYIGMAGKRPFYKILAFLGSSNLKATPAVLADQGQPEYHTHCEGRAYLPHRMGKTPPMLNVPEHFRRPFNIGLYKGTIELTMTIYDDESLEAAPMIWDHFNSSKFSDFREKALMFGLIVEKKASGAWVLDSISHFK

These are yes or no findings as the source states them, for the method shown. In cells and extracts the contact can be indirect. Some results given as binding are weak or reduced against the parent protein; the word gives no strength. Sequences can lack the tags named with a protein.

The target in the experiment is T1, hemagglutinin (HA) epitope tagged Rae1 (UniProt P78406).
T1 sequence: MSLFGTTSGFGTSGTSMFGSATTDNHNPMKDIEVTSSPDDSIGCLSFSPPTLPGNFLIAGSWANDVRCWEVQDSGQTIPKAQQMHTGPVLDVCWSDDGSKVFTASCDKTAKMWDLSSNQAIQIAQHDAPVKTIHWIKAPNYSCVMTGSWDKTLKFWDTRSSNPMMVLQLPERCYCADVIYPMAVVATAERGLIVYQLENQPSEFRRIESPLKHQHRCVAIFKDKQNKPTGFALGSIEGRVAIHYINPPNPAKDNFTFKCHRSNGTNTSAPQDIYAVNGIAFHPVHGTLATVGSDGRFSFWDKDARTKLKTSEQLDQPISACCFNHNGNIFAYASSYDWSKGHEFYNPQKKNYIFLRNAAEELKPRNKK
Kind of experiment: co-IP.

For “M protein of recombinant wild-type VSV (rwt virus) in infected cells (from UniProt P03519 1-229)”, the binding result is given as “binds”.
